# Test results taken from paper PMC4150762, “The DEAD-box helicase Ded1 from yeast is an mRNP cap-associated protein that shuttles between the cytoplasm and nucleus” (Nucleic Acids Research, 2014).
# Sequences of proteins named here, by UniProt entry; tags and fusion partners are left off.
# UniProt P06634: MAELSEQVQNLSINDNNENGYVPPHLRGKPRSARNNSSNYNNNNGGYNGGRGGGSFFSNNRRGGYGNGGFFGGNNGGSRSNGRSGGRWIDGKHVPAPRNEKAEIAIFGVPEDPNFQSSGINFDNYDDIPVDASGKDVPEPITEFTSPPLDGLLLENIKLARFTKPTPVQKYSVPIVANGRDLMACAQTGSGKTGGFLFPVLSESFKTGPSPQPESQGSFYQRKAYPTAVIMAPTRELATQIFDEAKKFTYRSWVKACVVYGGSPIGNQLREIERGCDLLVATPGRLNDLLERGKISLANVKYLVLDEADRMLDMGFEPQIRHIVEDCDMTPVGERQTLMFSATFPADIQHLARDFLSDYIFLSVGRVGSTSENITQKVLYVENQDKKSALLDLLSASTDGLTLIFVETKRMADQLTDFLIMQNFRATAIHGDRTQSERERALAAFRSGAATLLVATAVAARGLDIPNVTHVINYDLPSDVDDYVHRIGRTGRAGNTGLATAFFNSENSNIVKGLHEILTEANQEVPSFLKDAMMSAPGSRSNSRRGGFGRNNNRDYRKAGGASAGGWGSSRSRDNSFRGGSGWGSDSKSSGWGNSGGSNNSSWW
# UniProt P04147: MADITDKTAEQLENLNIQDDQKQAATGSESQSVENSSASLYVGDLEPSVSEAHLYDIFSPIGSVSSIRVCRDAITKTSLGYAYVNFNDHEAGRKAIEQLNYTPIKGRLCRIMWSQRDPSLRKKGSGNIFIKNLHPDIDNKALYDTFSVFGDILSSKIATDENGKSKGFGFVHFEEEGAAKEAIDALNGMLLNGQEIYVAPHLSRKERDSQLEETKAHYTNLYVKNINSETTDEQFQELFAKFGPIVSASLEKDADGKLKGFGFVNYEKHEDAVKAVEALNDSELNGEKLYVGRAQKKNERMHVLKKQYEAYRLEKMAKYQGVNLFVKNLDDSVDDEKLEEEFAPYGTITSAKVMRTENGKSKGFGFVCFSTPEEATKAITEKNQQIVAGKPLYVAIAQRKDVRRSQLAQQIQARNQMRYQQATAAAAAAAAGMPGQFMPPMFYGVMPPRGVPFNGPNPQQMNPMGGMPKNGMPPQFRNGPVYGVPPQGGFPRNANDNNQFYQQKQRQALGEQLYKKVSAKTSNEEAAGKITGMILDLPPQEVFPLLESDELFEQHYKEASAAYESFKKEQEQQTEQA
# Results are given in words; binding and its absence hold for the method and conditions named. Binding seen in cells or lysates may run through a third protein. Some entries that bind do so weakly or less than the wild type. Sequences can lack the tags named with a protein.
# Target: Ded1 (S. cerevisiae (endogenous in BY4742)) (UniProt P06634)
# Experiment: co-IP; Ded1-IgG crosslinked to protein A-Sepharose beads incubated with yeast extracts 1–2 h at 4°C, generally with 1 μg/ml RNase A; washed with PBS, eluted with glycine pH 2.5; western blot; pre-immune serum as control
row,Molecule,binding
1,"Cbp20 with an amino-terminal HA tag (protein, UniProt Q08920 1-208) MSLEEFDEVKYDHSTKRLDTPSRYLLRKARRNPNGLQELRESMKSSTIYVGNLSFYTSEEQIYELFSKCGTIKRIIMGLDRFKFTPCGFCFIIYSCPDEALNALKYLSDTKLDEKTITIDLDPGFEDGRQFGRGKSGGQVSDELRFDFDASRGGFAIPFAERVGVPHSRFDNSSSQSNTNNYIPPPDAMGTFRPGFDEEREDDNYVPQ",binds
2,"Cbp80 (protein, UniProt P34160 1-861) MFNRKRRGDFDEDENYRDFRPRMPKRQRIPPVVQLCKEMMPDIRTIGESVKAFEDDIKFLSEAIMNEYGHEDYFNNALLSTLNAVVVEQPQKQAAIALLTMVVNSKNNVAGKSIINYFFEELQKWCKQTYNDEFKSTSNETGPWNKIKLILRFLSILSPMFLVDELINIYKSLFELSIELNNLDPGNRVPLSEAIYTNTLLNIPYLFFFNRNNDGLRTKVEELLAYVEQNYLVKTTDINLLREYNGEPPYEMVELVRVVLPNVKKALINNLEQLNELFPDWNHLLTPQTGDEGFNDALTLPSVDDLKSFVRLNKNFGSVDSMWKTPRYAFHVYLPNSAGNFETVVPISTYAGQLFNDIIIDLVESLEFNRKEVARQVITLDLFFKAGIFTEPGESIAQLIATYEENPLAPTFKIEDLAIETILGLIFKLPSVSQPFAYFYTLLVDICQNSPKAIAPVFGRAFRFFYSHLDSLDFELKLRYLDWFSIQMSNFNFSWKWNEWEDDSIKFGKYFYNPKVNFAKNLIQKELRLTSNFSEVEDSLPQEFTKYLDTSYIPRDQLINYYQSLFTGYTVEEDSVRKNDLYFRQEGVPMENTVRKILDYTHKANNSREVTELESILGELKNEYGSIISDFNRFVIILLVQAVTDSGSRSLSHANKYINDLKEDLKTIFAKIELDIETKEYIIIEAVLTFWNANPQTGFLVADAFKYAGLLTSRTIFTFIFNETGLKNNGLIEATAIEAVFRNLSQQISEENESGNNFEFVFERLCTIANSTIDLLDVNADEDIEIPKVNGEMDIDDIEDDKLDLKWKYFTVIGFIKSILRRYSHEYRELADKFIANIDNAIPHESTRRTISNWIQETKEV",binds

# The remaining lines, values ahead:
row,binding,Molecule
1,binds,Pab1 (from UniProt P04147 1-577)
2,binds,"eIF4G1 (protein, UniProt P39935 1-952) MTDETAHPTQSASKQESAALKQTGDDQQESQQQRGYTNYNNGSNYTQKKPYNSNRPHQQRGGKFGPNRYNNRGNYNGGGSFRGGHMGANSSNVPWTGYYNNYPVYYQPQQMAAAGSAPANPIPVEEKSPVPTKIEITTKSGEHLDLKEQHKAKLQSQERSTVSPQPESKLKETSDSTSTSTPTPTPSTNDSKASSEENISEAEKTRRNFIEQVKLRKAALEKKRKEQLEGSSGNNNIPMKTTPENVEEKGSDKPEVTEKTKPAEEKSAEPEVKQETPAEEGEQGEKGQIKEESTPKVLTFAERLKLKKQQKEREEKTEGKENKEVPVQEETKSAIESAPVPPSEQVKEETEVAETEQSNIDESATTPAIPTKSDEAEAEVEAEAGDAGTKIGLEAEIETTTDETDDGTNTVSHILNVLKDATPIEDVFSFNYPEGIEGPDIKYKKEHVKYTYGPTFLLQFKDKLNVKADAEWVQSTASKIVIPPGMGRGNRSRDSGRFGNNSSRGHDFRNTSVRNMDDRANSRTSSKRRSKRMNDDRRSNRSYTSRRDRERGSYRNEEKREDDKPKEEVAPLVPSANRWVPKFKSKKTEKKLAPDGKTELLDKDEVERKMKSLLNKLTLEMFDAISSEILAIANISVWETNGETLKAVIEQIFLKACDEPHWSSMYAQLCGKVVKELNPDITDETNEGKTGPKLVLHYLVARCHAEFDKGWTDKLPTNEDGTPLEPEMMSEEYYAAASAKRRGLGLVRFIGFLYRLNLLTGKMMFECFRRLMKDLTDSPSEETLESVVELLNTVGEQFETDSFRTGQATLEGSQLLDSLFGILDNIIQTAKISSRIKFKLIDIKELRHDKNWNSDKKDNGPKTIQQIHEEEERQRQLKNNSRSNSRRTNNSSNRHSFRRDAPPASKDSFITTRTYSQRNSQRAPPPKEEPAAPTSTATNMFSALMGESDDEE"
